Data published in paper doi:10.1101/2024.08.06.606759.
No constants are given. Whether binding was seen depends on the method and setting. In cells and extracts the contact can be indirect. Some entries that bind do so weakly or less than the wild type. For part of these data: Tags and fused reporters may be left off the sequences shown. One block for each substance: values may come before it.

Protein sequences, listed by entry. Tags and fused reporters are not part of them.
UniProt P11586: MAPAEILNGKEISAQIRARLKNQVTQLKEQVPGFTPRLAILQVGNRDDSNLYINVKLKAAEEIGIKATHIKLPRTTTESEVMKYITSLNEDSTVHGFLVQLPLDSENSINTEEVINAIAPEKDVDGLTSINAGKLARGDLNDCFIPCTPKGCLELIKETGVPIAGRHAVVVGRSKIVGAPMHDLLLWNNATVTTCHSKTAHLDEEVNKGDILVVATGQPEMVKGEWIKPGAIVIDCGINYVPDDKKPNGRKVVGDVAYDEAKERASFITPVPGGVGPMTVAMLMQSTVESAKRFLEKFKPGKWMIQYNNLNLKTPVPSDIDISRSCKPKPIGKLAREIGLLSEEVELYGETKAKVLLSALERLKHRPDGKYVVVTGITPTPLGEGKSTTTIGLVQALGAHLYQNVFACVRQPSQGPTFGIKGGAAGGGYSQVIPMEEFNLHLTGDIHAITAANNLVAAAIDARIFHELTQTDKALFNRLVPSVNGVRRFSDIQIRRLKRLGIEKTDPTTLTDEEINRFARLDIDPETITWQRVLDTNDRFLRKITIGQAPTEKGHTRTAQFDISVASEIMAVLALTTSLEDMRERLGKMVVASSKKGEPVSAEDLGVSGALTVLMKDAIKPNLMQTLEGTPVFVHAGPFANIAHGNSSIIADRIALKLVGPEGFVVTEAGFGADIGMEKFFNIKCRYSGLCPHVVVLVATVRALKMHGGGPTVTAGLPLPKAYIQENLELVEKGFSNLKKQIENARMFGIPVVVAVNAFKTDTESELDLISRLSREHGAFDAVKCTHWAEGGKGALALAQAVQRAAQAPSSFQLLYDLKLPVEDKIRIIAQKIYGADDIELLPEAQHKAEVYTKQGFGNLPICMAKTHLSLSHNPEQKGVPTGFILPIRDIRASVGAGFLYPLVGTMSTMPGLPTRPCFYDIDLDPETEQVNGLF

Assays:
GST-RIPK4 = target: T1, GST-RIPK4 (UniProt P57078); assay: pull-down
T1 sequence: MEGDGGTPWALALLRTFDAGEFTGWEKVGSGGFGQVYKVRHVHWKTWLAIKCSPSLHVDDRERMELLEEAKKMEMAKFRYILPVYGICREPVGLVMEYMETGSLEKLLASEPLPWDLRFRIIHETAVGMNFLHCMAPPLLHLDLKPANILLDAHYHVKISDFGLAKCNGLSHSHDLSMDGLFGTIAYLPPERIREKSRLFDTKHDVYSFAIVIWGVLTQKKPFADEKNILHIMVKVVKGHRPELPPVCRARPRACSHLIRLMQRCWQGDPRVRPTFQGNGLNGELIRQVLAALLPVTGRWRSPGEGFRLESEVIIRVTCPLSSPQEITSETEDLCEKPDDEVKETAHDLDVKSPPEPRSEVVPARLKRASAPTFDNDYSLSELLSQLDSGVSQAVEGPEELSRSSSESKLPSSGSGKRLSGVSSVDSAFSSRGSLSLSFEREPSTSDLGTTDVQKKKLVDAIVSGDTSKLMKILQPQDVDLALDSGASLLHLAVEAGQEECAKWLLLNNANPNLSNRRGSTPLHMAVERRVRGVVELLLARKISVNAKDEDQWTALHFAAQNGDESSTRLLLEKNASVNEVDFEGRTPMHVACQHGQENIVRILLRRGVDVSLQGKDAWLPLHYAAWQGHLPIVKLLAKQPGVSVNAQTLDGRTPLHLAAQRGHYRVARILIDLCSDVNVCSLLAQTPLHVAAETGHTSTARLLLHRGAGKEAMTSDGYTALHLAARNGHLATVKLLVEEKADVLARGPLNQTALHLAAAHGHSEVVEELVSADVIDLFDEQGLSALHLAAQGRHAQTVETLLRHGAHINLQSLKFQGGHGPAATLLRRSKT

RIPK4 (endogenous) = target: T2, RIPK4 (endogenous) (UniProt P57078); assay: co-IP
T2 sequence: T1 sequence

RIPK4-WT-FLAG = target: T3, RIPK4-WT-FLAG (UniProt P57078); assay: co-IP
T3 sequence: T1 sequence

- binding (GST-RIPK4): binds
Substance: His-MTHFD1 (from UniProt P11586 1-935) (enzyme)

- binding (RIPK4 (endogenous)): binds
Substance: MTHFD1 (endogenous, cells of the co-ip not stated) (from UniProt P11586 1-935) (enzyme)

- binding (RIPK4-WT-FLAG): binds
Substance: MTHFD1-HA (from UniProt P11586 1-935) (enzyme)
